# Experimental data reported in ChEMBL document CHEMBL2218924, “A broad activity screen in support of a chemogenomic map for kinase signalling research and drug discovery” (Biochem J, 2013).
# Sequences of proteins named here, by UniProt entry; tags and fusion partners are left off. A change or cut given only in a name is not applied to a line headed by its entry.
# UniProt P53778: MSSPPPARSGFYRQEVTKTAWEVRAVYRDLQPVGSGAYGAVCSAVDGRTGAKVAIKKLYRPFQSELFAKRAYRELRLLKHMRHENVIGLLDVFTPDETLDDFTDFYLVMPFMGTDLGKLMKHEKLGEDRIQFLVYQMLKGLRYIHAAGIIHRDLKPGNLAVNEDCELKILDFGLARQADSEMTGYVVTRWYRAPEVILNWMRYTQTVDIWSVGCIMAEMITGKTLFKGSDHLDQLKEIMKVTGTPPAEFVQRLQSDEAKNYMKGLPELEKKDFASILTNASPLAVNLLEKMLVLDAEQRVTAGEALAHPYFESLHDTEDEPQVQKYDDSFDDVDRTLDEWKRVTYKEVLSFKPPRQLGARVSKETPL
# UniProt Q96SB4, whole entry: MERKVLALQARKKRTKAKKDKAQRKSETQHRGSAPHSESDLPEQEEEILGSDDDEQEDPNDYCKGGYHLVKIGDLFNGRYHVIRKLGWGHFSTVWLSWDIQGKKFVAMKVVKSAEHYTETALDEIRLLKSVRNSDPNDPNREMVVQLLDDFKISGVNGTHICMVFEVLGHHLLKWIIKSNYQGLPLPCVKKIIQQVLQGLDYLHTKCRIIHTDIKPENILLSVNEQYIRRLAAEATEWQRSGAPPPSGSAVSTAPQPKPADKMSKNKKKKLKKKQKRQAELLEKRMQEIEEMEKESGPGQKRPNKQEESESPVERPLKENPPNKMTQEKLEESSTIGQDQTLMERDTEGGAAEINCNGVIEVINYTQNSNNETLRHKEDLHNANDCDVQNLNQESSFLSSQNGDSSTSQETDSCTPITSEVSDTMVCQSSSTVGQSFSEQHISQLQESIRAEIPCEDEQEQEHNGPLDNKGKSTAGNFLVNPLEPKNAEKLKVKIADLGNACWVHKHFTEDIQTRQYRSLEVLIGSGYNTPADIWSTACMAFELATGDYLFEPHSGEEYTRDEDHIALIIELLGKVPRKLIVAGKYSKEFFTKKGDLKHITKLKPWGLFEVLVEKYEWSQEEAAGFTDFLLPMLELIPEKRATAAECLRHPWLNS
# UniProt P78362, whole entry, looked up: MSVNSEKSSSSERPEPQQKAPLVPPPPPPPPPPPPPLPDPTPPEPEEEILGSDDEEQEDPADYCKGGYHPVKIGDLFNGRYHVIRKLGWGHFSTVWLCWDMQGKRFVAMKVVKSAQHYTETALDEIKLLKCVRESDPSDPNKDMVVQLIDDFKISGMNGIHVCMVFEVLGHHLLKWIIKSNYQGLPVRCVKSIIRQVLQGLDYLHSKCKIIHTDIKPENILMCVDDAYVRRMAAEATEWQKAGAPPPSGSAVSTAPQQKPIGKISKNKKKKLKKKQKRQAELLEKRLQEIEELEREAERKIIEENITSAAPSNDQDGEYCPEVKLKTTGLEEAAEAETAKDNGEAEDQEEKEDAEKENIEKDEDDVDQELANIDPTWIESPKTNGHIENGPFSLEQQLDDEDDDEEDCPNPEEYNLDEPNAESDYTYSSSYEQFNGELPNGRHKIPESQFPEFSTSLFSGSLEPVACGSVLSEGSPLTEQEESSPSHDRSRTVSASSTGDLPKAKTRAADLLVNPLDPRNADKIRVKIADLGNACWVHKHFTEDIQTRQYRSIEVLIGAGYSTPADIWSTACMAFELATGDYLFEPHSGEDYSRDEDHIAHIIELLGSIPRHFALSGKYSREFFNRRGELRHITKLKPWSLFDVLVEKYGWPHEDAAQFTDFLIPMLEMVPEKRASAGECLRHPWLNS
# UniProt Q9NYY3: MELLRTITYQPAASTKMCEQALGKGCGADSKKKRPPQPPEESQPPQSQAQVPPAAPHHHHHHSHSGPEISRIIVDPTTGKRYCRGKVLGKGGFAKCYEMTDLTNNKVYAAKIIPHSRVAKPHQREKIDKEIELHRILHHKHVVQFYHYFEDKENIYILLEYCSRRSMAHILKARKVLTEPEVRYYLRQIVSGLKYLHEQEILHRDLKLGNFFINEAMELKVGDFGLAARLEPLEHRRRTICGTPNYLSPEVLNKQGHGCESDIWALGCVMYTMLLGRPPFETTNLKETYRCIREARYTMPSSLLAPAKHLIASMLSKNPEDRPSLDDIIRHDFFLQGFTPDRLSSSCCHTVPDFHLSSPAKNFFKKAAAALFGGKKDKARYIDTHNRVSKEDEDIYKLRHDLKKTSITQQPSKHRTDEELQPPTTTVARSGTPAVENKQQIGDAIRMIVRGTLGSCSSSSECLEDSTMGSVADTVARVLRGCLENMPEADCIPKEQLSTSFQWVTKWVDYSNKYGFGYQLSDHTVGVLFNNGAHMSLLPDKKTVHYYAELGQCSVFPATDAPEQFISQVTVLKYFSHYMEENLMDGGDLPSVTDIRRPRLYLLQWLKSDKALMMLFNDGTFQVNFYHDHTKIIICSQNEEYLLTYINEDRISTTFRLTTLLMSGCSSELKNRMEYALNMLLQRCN
# UniProt O43318: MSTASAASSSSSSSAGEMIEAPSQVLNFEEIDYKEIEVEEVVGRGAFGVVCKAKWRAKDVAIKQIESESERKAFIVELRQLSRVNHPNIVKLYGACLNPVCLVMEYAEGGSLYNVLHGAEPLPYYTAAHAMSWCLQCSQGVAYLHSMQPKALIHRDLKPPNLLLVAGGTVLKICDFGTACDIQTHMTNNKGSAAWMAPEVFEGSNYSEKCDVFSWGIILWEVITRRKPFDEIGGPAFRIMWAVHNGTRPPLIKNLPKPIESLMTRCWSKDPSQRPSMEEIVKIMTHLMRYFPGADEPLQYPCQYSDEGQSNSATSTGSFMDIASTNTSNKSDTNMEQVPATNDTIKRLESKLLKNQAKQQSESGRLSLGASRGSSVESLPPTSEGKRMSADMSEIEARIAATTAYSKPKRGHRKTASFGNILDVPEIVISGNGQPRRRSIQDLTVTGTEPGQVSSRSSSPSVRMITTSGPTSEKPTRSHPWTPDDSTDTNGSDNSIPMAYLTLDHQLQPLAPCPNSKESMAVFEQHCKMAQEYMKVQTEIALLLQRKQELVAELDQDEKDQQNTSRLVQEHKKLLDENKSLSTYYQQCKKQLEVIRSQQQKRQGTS
# UniProt Q9UL54: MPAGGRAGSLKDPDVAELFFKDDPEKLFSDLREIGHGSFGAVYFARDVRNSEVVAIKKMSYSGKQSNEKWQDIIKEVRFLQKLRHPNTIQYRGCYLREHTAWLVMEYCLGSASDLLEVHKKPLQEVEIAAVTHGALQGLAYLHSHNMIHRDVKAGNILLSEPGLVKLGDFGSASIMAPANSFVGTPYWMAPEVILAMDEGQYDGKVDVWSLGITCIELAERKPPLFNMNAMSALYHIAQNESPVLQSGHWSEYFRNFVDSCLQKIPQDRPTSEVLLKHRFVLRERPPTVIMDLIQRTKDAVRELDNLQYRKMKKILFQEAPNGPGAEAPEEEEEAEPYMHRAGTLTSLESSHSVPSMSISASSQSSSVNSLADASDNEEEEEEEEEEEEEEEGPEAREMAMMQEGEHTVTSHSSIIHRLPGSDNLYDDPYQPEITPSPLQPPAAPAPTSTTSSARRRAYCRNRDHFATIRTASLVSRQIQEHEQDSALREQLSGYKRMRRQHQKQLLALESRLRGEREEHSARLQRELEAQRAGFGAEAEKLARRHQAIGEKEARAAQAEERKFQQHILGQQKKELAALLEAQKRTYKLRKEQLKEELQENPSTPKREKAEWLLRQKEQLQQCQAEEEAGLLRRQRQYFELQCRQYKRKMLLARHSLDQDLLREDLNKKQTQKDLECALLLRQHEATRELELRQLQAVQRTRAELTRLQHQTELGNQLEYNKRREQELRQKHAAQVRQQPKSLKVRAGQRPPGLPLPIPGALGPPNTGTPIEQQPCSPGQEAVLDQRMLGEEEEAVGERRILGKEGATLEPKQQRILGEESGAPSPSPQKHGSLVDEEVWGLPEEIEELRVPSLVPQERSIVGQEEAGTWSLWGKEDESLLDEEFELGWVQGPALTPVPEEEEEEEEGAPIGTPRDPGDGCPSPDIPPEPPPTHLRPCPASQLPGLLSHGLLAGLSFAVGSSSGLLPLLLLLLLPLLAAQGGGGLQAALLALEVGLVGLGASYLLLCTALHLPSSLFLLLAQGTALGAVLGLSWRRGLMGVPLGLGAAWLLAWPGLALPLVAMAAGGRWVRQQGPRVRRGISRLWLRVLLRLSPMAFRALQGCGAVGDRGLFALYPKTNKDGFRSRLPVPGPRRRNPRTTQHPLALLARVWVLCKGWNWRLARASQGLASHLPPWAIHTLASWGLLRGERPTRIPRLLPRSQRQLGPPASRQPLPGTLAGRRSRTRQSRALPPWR
# UniProt P36897: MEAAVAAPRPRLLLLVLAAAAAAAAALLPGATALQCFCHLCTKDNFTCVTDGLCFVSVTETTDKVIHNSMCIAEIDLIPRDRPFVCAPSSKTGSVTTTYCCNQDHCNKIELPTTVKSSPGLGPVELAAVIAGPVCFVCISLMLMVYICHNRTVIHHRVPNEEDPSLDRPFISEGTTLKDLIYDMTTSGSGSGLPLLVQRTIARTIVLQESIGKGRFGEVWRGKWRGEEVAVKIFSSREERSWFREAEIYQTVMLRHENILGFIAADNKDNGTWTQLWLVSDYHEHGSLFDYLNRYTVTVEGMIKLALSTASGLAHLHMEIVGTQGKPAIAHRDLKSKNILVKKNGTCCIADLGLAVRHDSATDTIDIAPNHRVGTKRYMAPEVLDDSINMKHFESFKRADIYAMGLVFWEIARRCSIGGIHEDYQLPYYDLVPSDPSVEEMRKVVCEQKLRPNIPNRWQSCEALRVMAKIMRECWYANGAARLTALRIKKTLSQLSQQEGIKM
# UniProt P06213, whole entry: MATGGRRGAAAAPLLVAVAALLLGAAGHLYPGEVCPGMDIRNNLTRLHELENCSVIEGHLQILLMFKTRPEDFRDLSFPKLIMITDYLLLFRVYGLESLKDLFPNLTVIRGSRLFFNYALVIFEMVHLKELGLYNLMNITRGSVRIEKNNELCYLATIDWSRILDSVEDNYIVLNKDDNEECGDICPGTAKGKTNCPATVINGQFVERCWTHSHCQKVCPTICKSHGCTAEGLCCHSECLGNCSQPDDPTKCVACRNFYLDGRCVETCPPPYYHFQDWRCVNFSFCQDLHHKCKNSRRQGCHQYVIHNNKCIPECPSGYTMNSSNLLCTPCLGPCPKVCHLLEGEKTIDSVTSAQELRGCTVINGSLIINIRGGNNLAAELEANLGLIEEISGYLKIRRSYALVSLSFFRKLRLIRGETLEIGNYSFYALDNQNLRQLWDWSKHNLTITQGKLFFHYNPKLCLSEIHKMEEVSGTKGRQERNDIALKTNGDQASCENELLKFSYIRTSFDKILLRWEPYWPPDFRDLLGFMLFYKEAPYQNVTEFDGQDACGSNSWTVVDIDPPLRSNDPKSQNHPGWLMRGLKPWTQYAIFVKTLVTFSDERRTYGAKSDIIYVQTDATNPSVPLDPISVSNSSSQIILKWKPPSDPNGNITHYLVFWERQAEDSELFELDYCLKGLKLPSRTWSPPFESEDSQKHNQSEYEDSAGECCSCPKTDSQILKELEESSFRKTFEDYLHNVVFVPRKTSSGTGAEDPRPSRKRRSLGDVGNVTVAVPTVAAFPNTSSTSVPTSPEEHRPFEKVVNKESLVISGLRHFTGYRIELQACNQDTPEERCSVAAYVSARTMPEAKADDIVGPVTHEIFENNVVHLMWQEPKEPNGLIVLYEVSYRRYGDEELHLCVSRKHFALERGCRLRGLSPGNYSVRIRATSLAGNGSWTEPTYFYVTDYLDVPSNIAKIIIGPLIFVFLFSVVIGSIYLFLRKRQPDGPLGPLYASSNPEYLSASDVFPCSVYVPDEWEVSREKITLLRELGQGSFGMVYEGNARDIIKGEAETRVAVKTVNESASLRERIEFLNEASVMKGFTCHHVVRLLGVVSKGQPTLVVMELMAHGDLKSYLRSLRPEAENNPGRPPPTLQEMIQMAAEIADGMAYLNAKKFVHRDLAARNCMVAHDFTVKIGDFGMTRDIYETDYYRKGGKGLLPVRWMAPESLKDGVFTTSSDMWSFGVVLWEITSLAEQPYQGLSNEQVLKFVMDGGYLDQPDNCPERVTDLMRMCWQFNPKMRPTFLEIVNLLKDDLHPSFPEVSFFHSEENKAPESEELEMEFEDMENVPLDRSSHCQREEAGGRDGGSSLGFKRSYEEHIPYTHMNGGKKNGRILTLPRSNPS
# UniProt Q9NWZ3, whole entry: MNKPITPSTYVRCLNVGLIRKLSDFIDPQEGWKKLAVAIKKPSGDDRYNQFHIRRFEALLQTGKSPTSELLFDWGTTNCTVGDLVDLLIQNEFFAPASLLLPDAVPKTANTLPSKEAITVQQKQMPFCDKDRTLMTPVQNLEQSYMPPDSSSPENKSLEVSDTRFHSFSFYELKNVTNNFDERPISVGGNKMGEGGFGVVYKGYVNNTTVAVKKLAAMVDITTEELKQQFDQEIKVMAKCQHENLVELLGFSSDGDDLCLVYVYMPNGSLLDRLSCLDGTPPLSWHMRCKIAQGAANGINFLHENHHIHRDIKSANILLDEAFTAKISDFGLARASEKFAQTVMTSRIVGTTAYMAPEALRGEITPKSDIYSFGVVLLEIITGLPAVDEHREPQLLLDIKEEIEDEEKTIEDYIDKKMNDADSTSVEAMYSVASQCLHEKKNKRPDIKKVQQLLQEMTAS
# For some assays here: The strong results were mostly taken out for another list; the other results follow. This is a selection; strong and weak results do not stand in their true shares.
# Key:
# [1] = molecular target: Mitogen-activated protein kinase 12 (Homo sapiens) (UniProt P53778); conditions: at 1 µM
# [2] = molecular target: Mitogen-activated protein kinase 12 (Homo sapiens) (UniProt P53778); conditions: at 10 µM
# [3] = molecular target: Mitogen-activated protein kinase 13 (Homo sapiens) (UniProt O15264); conditions: at 1 µM
# [4] = molecular target: Mitogen-activated protein kinase 13 (Homo sapiens) (UniProt O15264); conditions: at 10 µM
# [5] = molecular target: Serine/threonine-protein kinase Sgk1 (Homo sapiens) (UniProt O00141); conditions: at 1 µM
# [6] = molecular target: Serine/threonine-protein kinase Sgk1 (Homo sapiens) (UniProt O00141); conditions: at 10 µM
# [7] = molecular target: Serine/threonine-protein kinase Sgk2 (Homo sapiens) (UniProt Q9HBY8); conditions: at 1 µM
# [8] = molecular target: Serine/threonine-protein kinase Sgk2 (Homo sapiens) (UniProt Q9HBY8); conditions: at 10 µM
# [9] = molecular target: Serine/threonine-protein kinase Sgk3 (Homo sapiens) (UniProt Q96BR1); conditions: at 1 µM
# [10] = molecular target: Serine/threonine-protein kinase Sgk3 (Homo sapiens) (UniProt Q96BR1); conditions: at 10 µM
# [11] = molecular target: Serine/threonine-protein kinase SIK1 (Homo sapiens) (UniProt P57059); conditions: at 1 µM
# [12] = molecular target: Serine/threonine-protein kinase SIK1 (Homo sapiens) (UniProt P57059); conditions: at 10 µM
# [13] = molecular target: SRSF protein kinase 1 (Homo sapiens) (UniProt Q96SB4); conditions: at 1 µM
# [14] = molecular target: SRSF protein kinase 1 (Homo sapiens) (UniProt Q96SB4); conditions: at 10 µM
# [15] = molecular target: SRSF protein kinase 2 (Homo sapiens) (UniProt P78362); conditions: at 1 µM
# [16] = molecular target: SRSF protein kinase 2 (Homo sapiens) (UniProt P78362); conditions: at 10 µM
# [17] = molecular target: Serine/threonine-protein kinase 33 (Homo sapiens) (UniProt Q9BYT3); conditions: at 1 µM
# [18] = molecular target: Serine/threonine-protein kinase 33 (Homo sapiens) (UniProt Q9BYT3); conditions: at 10 µM
# [19] = molecular target: Serine/threonine-protein kinase PLK2 (Homo sapiens) (UniProt Q9NYY3); conditions: at 1 µM
# [20] = molecular target: Serine/threonine-protein kinase PLK2 (Homo sapiens) (UniProt Q9NYY3); conditions: at 10 µM
# [21] = molecular target: Tyrosine-protein kinase SYK (Homo sapiens) (UniProt P43405); conditions: at 1 µM
# [22] = molecular target: Tyrosine-protein kinase SYK (Homo sapiens) (UniProt P43405); conditions: at 10 µM
# [23] = molecular target: Mitogen-activated protein kinase kinase kinase 7 (Homo sapiens) (UniProt O43318); conditions: at 1 µM
# [24] = molecular target: Mitogen-activated protein kinase kinase kinase 7 (Homo sapiens) (UniProt O43318); conditions: at 10 µM
# [25] = molecular target: Serine/threonine-protein kinase TAO1 (Homo sapiens) (UniProt Q7L7X3); conditions: at 1 µM
# [26] = molecular target: Serine/threonine-protein kinase TAO1 (Homo sapiens) (UniProt Q7L7X3); conditions: at 10 µM
# [27] = molecular target: Serine/threonine-protein kinase TAO2 (Homo sapiens) (UniProt Q9UL54); conditions: at 1 µM
# [28] = molecular target: Serine/threonine-protein kinase TAO2 (Homo sapiens) (UniProt Q9UL54); conditions: at 10 µM
# [29] = molecular target: Serine/threonine-protein kinase TAO3 (Homo sapiens) (UniProt Q9H2K8); conditions: at 1 µM
# [30] = molecular target: Serine/threonine-protein kinase TAO3 (Homo sapiens) (UniProt Q9H2K8); conditions: at 10 µM
# [31] = molecular target: Serine/threonine-protein kinase TBK1 (Homo sapiens) (UniProt Q9UHD2); conditions: at 1 µM
# [32] = molecular target: Serine/threonine-protein kinase TBK1 (Homo sapiens) (UniProt Q9UHD2); conditions: at 10 µM
# [33] = molecular target: TGF-beta receptor type-1 (Homo sapiens) (UniProt P36897); conditions: at 1 µM
# [34] = molecular target: TGF-beta receptor type-1 (Homo sapiens) (UniProt P36897); conditions: at 10 µM
# [35] = molecular target: Insulin-like growth factor 1 receptor (Homo sapiens) (UniProt P08069); conditions: at 1 µM
# [36] = molecular target: Insulin-like growth factor 1 receptor (Homo sapiens) (UniProt P08069); conditions: at 10 µM
# [37] = molecular target: Inhibitor of nuclear factor kappa-B kinase subunit alpha (Homo sapiens) (UniProt O15111); conditions: at 1 µM
# [38] = molecular target: Inhibitor of nuclear factor kappa-B kinase subunit alpha (Homo sapiens) (UniProt O15111); conditions: at 10 µM
# [39] = molecular target: Inhibitor of nuclear factor kappa-B kinase subunit beta (Homo sapiens) (UniProt O14920); conditions: at 1 µM
# [40] = molecular target: Inhibitor of nuclear factor kappa-B kinase subunit beta (Homo sapiens) (UniProt O14920); conditions: at 10 µM
# [41] = molecular target: Insulin receptor (Homo sapiens) (UniProt P06213); conditions: at 1 µM
# [42] = molecular target: Insulin receptor (Homo sapiens) (UniProt P06213); conditions: at 10 µM
# [43] = molecular target: Insulin receptor (Homo sapiens) (UniProt P06213); conditions: at 1 µM; remark: listed apart in the source
# [44] = molecular target: Insulin receptor (Homo sapiens) (UniProt P06213); conditions: at 10 µM; remark: listed apart in the source
# [45] = molecular target: Interleukin-1 receptor-associated kinase 1 (Homo sapiens) (UniProt P51617); conditions: at 1 µM
# [46] = molecular target: Interleukin-1 receptor-associated kinase 1 (Homo sapiens) (UniProt P51617); conditions: at 10 µM
# [47] = molecular target: Interleukin-1 receptor-associated kinase 4 (Homo sapiens) (UniProt Q9NWZ3); conditions: at 1 µM
# [48] = molecular target: Interleukin-1 receptor-associated kinase 4 (Homo sapiens) (UniProt Q9NWZ3); conditions: at 10 µM
# [49] = molecular target: Insulin receptor-related protein (Homo sapiens) (UniProt P14616); conditions: at 1 µM
# [50] = molecular target: Insulin receptor-related protein (Homo sapiens) (UniProt P14616); conditions: at 10 µM
# [51] = molecular target: Tyrosine-protein kinase ITK/TSK (Homo sapiens) (UniProt Q08881); conditions: at 1 µM
# [52] = molecular target: Tyrosine-protein kinase ITK/TSK (Homo sapiens) (UniProt Q08881); conditions: at 10 µM
# [53] = molecular target: Mitogen-activated protein kinase 8 (Homo sapiens) (UniProt P45983); conditions: at 1 µM
# [54] = molecular target: Mitogen-activated protein kinase 8 (Homo sapiens) (UniProt P45983); conditions: at 10 µM
# [55] = molecular target: Mitogen-activated protein kinase 9 (Homo sapiens) (UniProt P45984); conditions: at 1 µM
# [56] = molecular target: Mitogen-activated protein kinase 9 (Homo sapiens) (UniProt P45984); conditions: at 10 µM
structure (smiles),measurement,setting,value
O=C1Nc2ccc(-c3cccnc3)cc2/C1=C\c1ccc[nH]1,residual activity,[1],83%
same,residual activity,[2],32%
same,residual activity,[3],73%
same,residual activity,[4],19%
same,residual activity,[5],25%
same,residual activity,[6],1%
same,residual activity,[7],12%
same,residual activity,[8],2%
same,residual activity,[9],58%
same,residual activity,[10],13%
same,residual activity,[11],36%
same,residual activity,[12],10%
same,residual activity,[13],98%
same,residual activity,[14],76%
same,residual activity,[15],96%
same,residual activity,[16],69%
same,residual activity,[17],24%
same,residual activity,[18],4%
same,residual activity,[19],87%
same,residual activity,[20],43%
same,residual activity,[21],90%
same,residual activity,[22],19%
same,residual activity,[23],10%
same,residual activity,[24],-2%
same,residual activity,[25],8%
same,residual activity,[26],2%
same,residual activity,[27],50%
same,residual activity,[28],8%
same,residual activity,[29],13%
same,residual activity,[30],3%
same,residual activity,[31],1%
same,residual activity,[32],0%
same,residual activity,[33],58%
same,residual activity,[34],19%
same,residual activity,[35],88%
same,residual activity,[36],60%
same,residual activity,[37],5%
same,residual activity,[38],0%
same,residual activity,[39],51%
same,residual activity,[40],22%
same,residual activity,[41],71%
same,residual activity,[42],46%
same,residual activity,[43],89%
same,residual activity,[44],56%
same,residual activity,[45],1%
same,residual activity,[46],-1%
same,residual activity,[47],3%
same,residual activity,[48],1%
same,residual activity,[49],122%
same,residual activity,[50],31%
same,residual activity,[51],46%
same,residual activity,[52],8%
same,residual activity,[53],65%
same,residual activity,[54],-5%
same,residual activity,[55],80%
same,residual activity,[56],21%
